{"source": "PubChem BioAssay AID652243 (Drosophila RNAi Screening Center, 2013)", "purpose": "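Knock-downs that decrease or increase androgen receptor reporter signal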 (primary screen)", "system": "Drosophila S2R+ cells", "knock-down reagent": "long dsRNA against Drosophila genes", "duration": "72 h (48 h, then 24 h hormone)", "treatment": "synthetic androgen R1881 at 10 nM for 24 h", "read-out": "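Per-well raw luminescence of the androgen-driven firefly reporter and of the Renilla control, two replicates each, without normalisation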", "direction": "firefly reporter light: higher = more light from androgen-responsive reporter; Renilla control light: higher = more constitutive control signal (cell number, transfection)", "hit rule": "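Across duplicate plates, a knock-down whose log firefly/Renilla ratio shifted a set fold down or up from the GFP/LacZ control mean was a hit; the downward cut appears as both 1.5 and 3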", "calls": "active = hit: reporter lowered or raised; inactive = no hit", "note": "In all, the deposit lists about 24,000 reagents; this is an unselected part of those that have a named target and a result. Over the whole deposit, 246 (1%) got an active call. 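Plates not normalised; calls are printed but the firefly/Renilla ratio behind them is not deposited; fold cut for lowering reported inconsistently.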 Raw values vary from plate to plate and are shown uncorrected. Names joined by + are all predicted targets of the reagent. Not stated in the record: the amount of reagent."}
{"target gene": "Smug (GeneID 42078)", "DRSC id": "DRSC15762", "firefly reporter light, replicate 1": 1.17e5, "firefly reporter light, replicate 2": 1.35e5, "Renilla control light, replicate 1": 1.65e6, "Renilla control light, replicate 2": 2.49e6, "call": "inactive"}
{"target gene": "mRpL12 (GeneID 44326)", "DRSC id": "DRSC10467", "firefly reporter light, replicate 1": 9.34e5, "firefly reporter light, replicate 2": 1.08e6, "Renilla control light, replicate 1": 8.98e5, "Renilla control light, replicate 2": 1.40e6, "call": "inactive"}
{"target gene": "mRpL12 (GeneID 44326)", "DRSC id": "DRSC28525", "firefly reporter light, replicate 1": 3.06e5, "firefly reporter light, replicate 2": 4.65e5, "Renilla control light, replicate 1": 4.91e5, "Renilla control light, replicate 2": 1.29e6, "call": "inactive"}
{"target gene": "clumsy (GeneID 35394)", "DRSC id": "DRSC03111", "firefly reporter light, replicate 1": 1.08e5, "firefly reporter light, replicate 2": 1.57e5, "Renilla control light, replicate 1": 9.86e5, "Renilla control light, replicate 2": 1.74e6, "call": "inactive"}
{"target gene": "psh (GeneID 32832)", "DRSC id": "DRSC19990", "firefly reporter light, replicate 1": 7.93e5, "firefly reporter light, replicate 2": 7.04e5, "Renilla control light, replicate 1": 3.77e6, "Renilla control light, replicate 2": 3.37e6, "call": "inactive"}
{"target gene": "psh (GeneID 32832)", "DRSC id": "DRSC28534", "firefly reporter light, replicate 1": 3.04e5, "firefly reporter light, replicate 2": 3.32e5, "Renilla control light, replicate 1": 6.66e5, "Renilla control light, replicate 2": 1.24e6, "call": "inactive"}
{"target gene": "Men-b (GeneID 43936)", "DRSC id": "DRSC16736", "firefly reporter light, replicate 1": 2.57e5, "firefly reporter light, replicate 2": 1.88e5, "Renilla control light, replicate 1": 1.89e6, "Renilla control light, replicate 2": 1.76e6, "call": "inactive"}
{"target gene": "CG7579 (GeneID 39714)", "DRSC id": "DRSC10885", "firefly reporter light, replicate 1": 2.55e5, "firefly reporter light, replicate 2": 2.02e5, "Renilla control light, replicate 1": 2.46e6, "Renilla control light, replicate 2": 1.82e6, "call": "inactive"}
{"target gene": "CR33283 (GeneID 10178863)", "DRSC id": "DRSC22918", "firefly reporter light, replicate 1": 6.62e5, "firefly reporter light, replicate 2": 1.09e6, "Renilla control light, replicate 1": 1.47e6, "Renilla control light, replicate 2": 1.60e6, "call": "inactive"}

The list goes on, starting with the last 2 of the part before.
{"target gene": "CG7579 (GeneID 39714)", "DRSC id": "DRSC10885", "firefly reporter light, replicate 1": 2.55e5, "firefly reporter light, replicate 2": 2.02e5, "Renilla control light, replicate 1": 2.46e6, "Renilla control light, replicate 2": 1.82e6, "call": "inactive"}
{"target gene": "CR33283 (GeneID 10178863)", "DRSC id": "DRSC22918", "firefly reporter light, replicate 1": 6.62e5, "firefly reporter light, replicate 2": 1.09e6, "Renilla control light, replicate 1": 1.47e6, "Renilla control light, replicate 2": 1.60e6, "call": "inactive"}
{"target gene": "cwo (GeneID 44669)", "DRSC id": "DRSC17072", "firefly reporter light, replicate 1": 1.11e5, "firefly reporter light, replicate 2": 1.34e5, "Renilla control light, replicate 1": 1.41e6, "Renilla control light, replicate 2": 1.50e6, "call": "inactive"}
{"target gene": "cwo (GeneID 44669)", "DRSC id": "DRSC25219", "firefly reporter light, replicate 1": 2.69e5, "firefly reporter light, replicate 2": 3.70e5, "Renilla control light, replicate 1": 8.02e5, "Renilla control light, replicate 2": 5.09e5, "call": "inactive"}
{"target gene": "CG1324 (GeneID 33060)", "DRSC id": "DRSC20496", "firefly reporter light, replicate 1": 70755, "firefly reporter light, replicate 2": 46989, "Renilla control light, replicate 1": 4.24e5, "Renilla control light, replicate 2": 3.83e5, "call": "inactive"}
{"target gene": "CG1324 (GeneID 33060)", "DRSC id": "DRSC25582", "firefly reporter light, replicate 1": 7.46e5, "firefly reporter light, replicate 2": 5.29e5, "Renilla control light, replicate 1": 8.73e5, "Renilla control light, replicate 2": 7.49e5, "call": "inactive"}
{"target gene": "Tgs1 + moi", "DRSC id": "DRSC24535", "firefly reporter light, replicate 1": 6.76e5, "firefly reporter light, replicate 2": 5.38e5, "Renilla control light, replicate 1": 9.04e5, "Renilla control light, replicate 2": 7.07e5, "call": "inactive"}
{"target gene": "Tgs1 + moi", "DRSC id": "DRSC39087", "firefly reporter light, replicate 1": 2.13e5, "firefly reporter light, replicate 2": 1.47e5, "Renilla control light, replicate 1": 7.58e5, "Renilla control light, replicate 2": 4.77e5, "call": "inactive"}
{"target gene": "ATPsynGL (GeneID 34054)", "DRSC id": "DRSC03027", "firefly reporter light, replicate 1": 1.58e5, "firefly reporter light, replicate 2": 1.51e5, "Renilla control light, replicate 1": 1.62e6, "Renilla control light, replicate 2": 1.54e6, "call": "inactive"}
{"target gene": "ATPsynGL (GeneID 34054)", "DRSC id": "DRSC28550", "firefly reporter light, replicate 1": 3.00e5, "firefly reporter light, replicate 2": 6.33e5, "Renilla control light, replicate 1": 9.90e5, "Renilla control light, replicate 2": 1.51e6, "call": "inactive"}
{"target gene": "CG30339 (GeneID 246549)", "DRSC id": "DRSC05168", "firefly reporter light, replicate 1": 1.56e5, "firefly reporter light, replicate 2": 2.10e5, "Renilla control light, replicate 1": 1.89e5, "Renilla control light, replicate 2": 2.25e5, "call": "inactive"}
{"target gene": "MsR2 (GeneID 38296)", "DRSC id": "DRSC08336", "firefly reporter light, replicate 1": 1.16e5, "firefly reporter light, replicate 2": 1.93e5, "Renilla control light, replicate 1": 2.91e6, "Renilla control light, replicate 2": 2.79e6, "call": "inactive"}
{"target gene": "MsR2 (GeneID 38296)", "DRSC id": "DRSC08337", "firefly reporter light, replicate 1": 75710, "firefly reporter light, replicate 2": 1.13e5, "Renilla control light, replicate 1": 7.69e5, "Renilla control light, replicate 2": 1.05e6, "call": "inactive"}
{"target gene": "MsR2 (GeneID 38296)", "DRSC id": "DRSC22440", "firefly reporter light, replicate 1": 4.68e5, "firefly reporter light, replicate 2": 7.14e5, "Renilla control light, replicate 1": 5.88e5, "Renilla control light, replicate 2": 7.25e5, "call": "inactive"}
{"target gene": "MsR2 (GeneID 38296)", "DRSC id": "DRSC26863", "firefly reporter light, replicate 1": 5.20e5, "firefly reporter light, replicate 2": 3.33e5, "Renilla control light, replicate 1": 6.80e5, "Renilla control light, replicate 2": 4.80e5, "call": "inactive"}
